Experimental data reported in patent US20150174202A1, “Methods and Compositions for Modulating Beta Cell Proliferation” (The Board of Trustees of the Leland Stanford Junior …, priority 2011, published 2015).
For at least one compound, name, drawing or mass did not settle the structure.

Experiments:
Type in all cases: cell-based
[1] = tested on: mouse islet β-cells; experiment: In vitro mouse islet β-cell proliferation (BrdU incorporation); settings: 3 week-old mouse islets, PDGF-AA 50 ng/ml plus inhibitor (Sunitinib 2 μM, Vargatef 5 μM), 2 days
Experimental: Mouse pancreatic islets were purified as described in Chen et al. (2009) Genes Dev. 23, 975-985 and used immediately for assays described in the text. To study Ezh2 induction in cultured islets exposed to mitogens, freshly isolated islets from 2-3-week old, and 7-12-month old C57BL/6 mice were recovered and equilibrated overnight at 37° C., 5% CO2 in RPMI-1640 medium supplemented with 0.5% fetal bovine serum (FBS), 0.2% bovine albumin (BSA) and 2% penicillin/streptomycin. […] Immunostaining of BrdU and insulin was performed on processed islets, and β-cell proliferation rate was determined by quantifying percentage of insulin+ cells with BrdU+. […] For measuring pancreatic β-cell mass or BrdU by morphometry, three to six mice for each group were analysed. At least five sections separated by more than 300 μm (pancreases) or 50 μm (cultured islets) were immunostained and assessed for each sample. Images were analysed with an ImagePro program by observers blinded to genotype, and pancreatic β-cell mass and percentage of BrdU+β-cells were calculated as described in Chen et al. Polycomb protein Ezh2 regulates pancreatic 6-cell Ink4a/Arf expression and regeneration in diabetes mellitus. […]

[2] = tested on: EZH2; experiment: EZH2/EZH1 mRNA in cultured human islets (real-time RT-PCR); settings: juvenile human islets, PDGF-AA 50 ng/ml with Sunitinib 2 μM or U0126 10 μM, 2 days
Experimental: Total RNA from freshly isolated or cultured islets after indicated treatments were purified using the Absolutely RNA miniprep purification kit (Stratagene) according to the manufacturer's instructions. RNA concentration was measured with a RiboGreen RNA quantification assay (Invitrogen). One-step quantitative RT-PCR was performed and analysed using an ABI Prism 7300 detection system (Applied Biosystems) with TaqMan one-step RTPCR Master Mix Reagents and appropriate amounts (10-100 ng) of islet total RNA as the template. We calculated the ratio of mRNA for the gene of interest to the amount of internal control mRNA of peptidylprolyl isomerase A (cyclophilin A, PPIA), and then normalized the ratio for each gene to its median. For islet studies, human islets were isolated either at Pittsburgh University Medical Center or the University of Alabama, Birmingham. […] Afterwards, human islets were processed in a similar way as in mouse islet studies for immunostaining of insulin, glucagon, PDX1 and BrdU. β-Cell proliferation rate was determined by quantifying percentage of insulin+ cells with BrdU+. More than 50 islets per group were counted for determining cultured human islet β-cell proliferation rate.

[3] = tested on: Ezh2; experiment: Ezh2/Ezh1 expression in cultured mouse islets (real-time RT-PCR, western blot); settings: 3 week-old mouse islets, PDGF-AA plus inhibitor, 2 days
Experimental: Mouse pancreatic islets were purified as described in Chen et al. (2009) Genes Dev. 23, 975-985 and used immediately for assays described in the text. To study Ezh2 induction in cultured islets exposed to mitogens, freshly isolated islets from 2-3-week old, and 7-12-month old C57BL/6 mice were recovered and equilibrated overnight at 37° C., 5% CO2 in RPMI-1640 medium supplemented with 0.5% fetal bovine serum (FBS), 0.2% bovine albumin (BSA) and 2% penicillin/streptomycin. […] Immunostaining of BrdU and insulin was performed on processed islets, and β-cell proliferation rate was determined by quantifying percentage of insulin+ cells with BrdU+. […] RNA concentration was measured with a RiboGreen RNA quantification assay (Invitrogen). One-step quantitative RT-PCR was performed and analysed using an ABI Prism 7300 detection system (Applied Biosystems) with TaqMan one-step RTPCR Master Mix Reagents and appropriate amounts (10-100 ng) of islet total RNA as the template. We calculated the ratio of mRNA for the gene of interest to the amount of internal control mRNA of peptidylprolyl isomerase A (cyclophilin A, PPIA), and then normalized the ratio for each gene to its median. […]

[4] = tested on: human EZH2 locus; experiment: EZH2 locus ChIP analysis with anti-E2F1 antibody in human juvenile islets; settings: PDGF-AA with Sunitinib 2 μM
Experimental: ChIPs were performed using a chromatin immunoprecipitation kit from Millipore. Briefly, freshly isolated mouse pancreatic islets or cultured human islets after the indicated treatments were pooled, and fixed with 2% formaldehyde for cross-linking for 20 min at room temperature (25° C.). After washing, islets were dissolved in SDS lysis buffer containing a proteinase inhibitor cocktail followed by sonication to shear the chromatin. Precleared chromatin from 150 to 300 islets was used for each ChIP sample with incubation of 1 to 5 μg of the appropriate antibodies at 4° C. overnight. The antibodies used in the ChIP assays included mouse anti-E2F1 (Millipore), rabbit anti-E2F4 (Santa Cruz Biotechnologies), rabbit or mouse polyclonal IgG (Millipore). […] After measurement of DNA concentration by PicoGreen DNA assay (Invitrogen), equivalent amounts of chromatin DNA from every sample was quantified by real-time qPCR in ABI Prism 7300 detection system (Applied Biosystems). […] Afterwards, human islets were processed in a similar way as in mouse islet studies for immunostaining of insulin, glucagon, PDX1 and BrdU. β-Cell proliferation rate was determined by quantifying percentage of insulin+ cells with BrdU+. More than 50 islets per group were counted for determining cultured human islet β-cell proliferation rate.

[5] = tested on: human islet β-cells; experiment: In vitro human islet β-cell proliferation (BrdU incorporation); settings: juvenile human islets, PDGF-AA 50 ng/ml with Sunitinib 2 μM or U0126 10 μM
Source text: For islet studies, human islets were isolated either at Pittsburgh University Medical Center or the University of Alabama, Birmingham. Eight independent human islet preparations from juvenile donors at the age of 8 months, 1.0, 1.5, 2, 3, 4, 5 and 6 years, and three adult islet preparations from donors at the age of 39, 48 and 56 years were used in this study. After isolation, fresh islets were hand-picked and transferred to RPMI-1640 medium supplemented with 0.5% FBS, 0.2% BSA and 2% penicillin/streptomycin for an overnight recovery before experiments. […] To detect in vitro human islet β-cell proliferation stimulated by PDGF-AA, human islets were exposed to 50 μM BrdU for 24 h. Afterwards, human islets were processed in a similar way as in mouse islet studies for immunostaining of insulin, glucagon, PDX1 and BrdU. β-Cell proliferation rate was determined by quantifying percentage of insulin+ cells with BrdU+. More than 50 islets per group were counted for determining cultured human islet β-cell proliferation rate.

Compound	effect of inhibitor on PDGF-AA-increased β-cell BrdU incorporation [1]	effect of inhibitor on PDGF-AA-increased EZH2 mRNA [2]	effect of inhibitor on PDGF-AA-induced Ezh2 expression [3]	effect of inhibitor on PDGF-AA-stimulated E2F1 association with EZH2 locus [4]	effect of inhibitor on PDGF-AA-increased β-cell BrdU incorporation [5]
O=c1cc(N2CCOCC2)oc2c(-c3ccccc3)cccc12 [LY294002, reference compound]	but not by	–	–	–	–
CCN(CC)CCNC(=O)c1c(C)[nH]c(/C=C2\C(=O)Nc3ccc(F)cc32)c1C [Sunitinib, reference compound]	eliminated	blocked	eliminated	blocked	eliminated
